Measurements published in patent US20050048070A1.
Results are given in words; binding and its absence hold for the method and conditions named. Binding can be weak; no strength is given.

How the values were obtained:
[1] = target: K8(1-124)/intact K18 heterotypic complex (human); experiment: SPR (BIAcore), complex immobilized, COU-1 injected
[2] = target: K8(1-124)/K18(1-124) heterotypic complex (human); experiment: SPR (BIAcore), complex immobilized, COU-1 injected
[3] = target: K8(1-265)/intact K18 heterotypic complex (human); experiment: summary map of the heterotypic association assay: GST deletion protein incubated with the complementary keratin, then stained with COU-1
[4] = target: K8(1-265)/intact K18 heterotypic complex (human); experiment: heterotypic association assay: blotted K8 GST fusion proteins incubated with purified intact K18, then stained with COU-1

Measured: binding

B1: human monoclonal IgM antibody COU-1 (antibody, V domains shown)
VH: GAEVKKPGASVKVSCKASDYTFSSYYMHWVRQAPGQGLEWMGIINPSGGSTSYAQKFQGRVTMTRDTSTNTVYMELSSLRSEDTAVYYCARDQVVVAATLSNYGMDVWGQGTTVTVSS
VL: ELTQSPGTLSLSPGERATLSCRASQSVSSSYLAWYQQKPGQAPRLLIYDASNRATGIPARFSGSGSGTDFTLTISSLEPEDFAVYYCQQGTNWGIAFGQGTRLDIKR
binds: all assays above
